Test results taken from PubChem BioAssay AID1347423 (Functional Genomics Laboratory (NCATS/FGL), 2020).
Out of some 52,000 sequences screened, about 210 (0.4%) were called active.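 The calls were made as follows: active = gene whose silencing raises cell survival under the drug, median off-target-corrected z-score across its silencing RNAs 2 or more; inactive = the rest.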 This is one part of the list.

Test: Resistance to Poly (ADP-Ribose) Polymerase inhibitor: Gene Identification via Genome-wide siRNA Screen
Conditions: mouse BRCA2 R2336H ES cells, olaparib, CellTiter-Glo viability; hits give high values
Procedure, shortened: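 Genome-wide siRNA screen (3 siRNAs/gene, 20 nM) in mouse ES cells carrying hypomorphic BRCA2 R2336H; olaparib 500 nM added 48 h post-transfection, CellTiter-Glo viability 72 h later. Normalized to plate-median negative control; MAD z-scores, gene median, seed-adjusted.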

Sequence	z-score
GGAAAUUUACUAGGAGAACTT against Carf	inactive: 0.0892
GGCUGUUGUAUUCAGACCATT against Cmkor1	inactive: 0.817
GCAGAGCAAAGACCUGACUTT against 4930562D19Rik	inactive: 0.883
GCACAGAUUCCAUUAAAGATT against Rhbdl4	inactive: 1.19
GGAUUCGGAAUACUACGAUTT against Abo	inactive: 1.79
GGCAAAUGAGAAACAGCAATT against Cxcl16	inactive: 0.749
GGCUGAGACGGAAUCUUUATT against Bfsp2	inactive: 0.136
GCCAAUACACGUCUACUGATT against Gm1553	inactive: 0.00258
GAUUGGCUUCAAUCUAGUCTT against Olfr713	inactive: 0.0826
GGAAUACCAUGUUACAAUUTT against Reln	inactive: -0.0678
CCACCCUCUUCAUAACAGUTT against Crsp8	inactive: -0.339
GGAGAUCCUAAUCAUGUCATT against Kcmf1	inactive: 0.276
GGCCAAGGUACAAUCCACCTT against Gm996	inactive: 0.411
GCUGGCUGUUUCACUACAGTT against Tdh	inactive: 0.0389
GGCUGGUGACCUACAUCUUTT against Rhbdl7	inactive: 0.128
CCUCACCUUAAGUGUGUCATT against 1110058L19Rik	inactive: -1.7
GGGCAGAGUGAUGUUGUCATT against Gsdmdc1	inactive: -1.93
GGGAGACCUGCUACUAUUGTT against Gtf3c2	inactive: -0.0505
GCAAAUUCACCGGAAAAUGTT against Sh3d4	inactive: -1.44
GCAUAUACUCCAAAAGUCATT against Cldn8	inactive: 1.36
UGGCCUGAUCAUGAACAGUTT against S100a15	inactive: 1.62
GGUACACCCAGACAAGAACTT against 4930503B20Rik	inactive: 3.48

Sequence	z-score
GGAAGGUUUGUUGUUUUGUTT against D10Ucla2	inactive: 0.932
GCAACAAGUUUGAUACCGATT against Chic1	inactive: -0.784
GGAUAACAAAAGUAUCCAGTT against Ikbke	inactive: 0.845
GGAGAACAUCACUGAUCCATT against Grin1	inactive: 1.1
GGAGGAGGUUCAUAUUAAATT against A330041J22Rik	inactive: 0.981
UCACAACUGUCUGUUCUCATT against Ngfg	inactive: -0.819
GGCAUCCCACUGAAGAACATT against Cmas	inactive: 0.295
GGACUUUGUGCAUUUGUUATT against Ly75	inactive: -1.15
CCAAAAGUGGAGAGCGACATT against 1500041B16Rik	inactive: -2.14
GGACUAUAAAAUGUCAUGGTT against Etsrp71	inactive: 0.232
GGGAAACCAUCGAUUUGAATT against Bmp5	inactive: -1.46
CGUAGGAGAACAAACAUCCTT against Tmc7	inactive: 1.3
CCCUUAGACAAACAUGCUATT against A630035I11Rik	inactive: 0.871
GCAUACUACAUGAUGUGGUTT against Spag7	inactive: 0.551
GGGUUUUGCUAUGUGGCCUTT against Farsla	inactive: 1.29
GCAACUCAAUCCAUGCAAATT against Senp8	inactive: 0.472
GCAAGAAAGCAUGGUAUAATT against B230315F11Rik	inactive: -1.56
GGUUAUGCUGGAGAUAAAUTT against Lama1	inactive: -0.386
GGCUGAGUGCUUCUAUCGUTT against A830008O07	inactive: -0.405
GGCUGUGAUUAGAGGAUGATT against Dnajc5	inactive: 0.235
GGGUUUUUCUGAAAAACAUTT against B230106I24Rik	inactive: 1.83
GCAUUCUGUUCGAGCUCCATT against BC037095	inactive: -3.19

Sequence	z-score
CCUCAACUUUUCAAAAGACTT against Dlx5	inactive: -0.454
GGUCAUAGCCCUCUACAUATT against Rgr	inactive: -0.982
GGAGUUGUCGCACUACAUGTT against Bicd2	inactive: -1.28
GGAGUCAAAAAAAAUGCAATT against 2610028I09Rik	inactive: 0.582
GGAUCUGGAGAAGAUGUUCTT against Efhd1	inactive: -0.354
GGCGUGUUGGAACAAGGAUTT against Cops8	inactive: -0.907
GGAAGUUUUCAGGCAAUUUTT against AA959601	inactive: -2.38
CCGUGUACUUUGGAUCUGGTT against Cox7c	inactive: -0.308
CGAUGAGAUGCGUAUUGAGTT against Card11	inactive: -0.977
GGUGUACGGUAUUUUGUUUTT against D330045A20Rik	inactive: 0.0853
GGCACACUUUCUACCUAAUTT against Tmem26	inactive: 0.734
GCGGCUAGGAUUUCUGGGATT against 2310047O13Rik	inactive: 0.169
GCAUACUUUUGUCAAGUCCTT against Dbhl1	inactive: 0.287
CCCUAAUAGGUCAAUAAAGTT against V1re13	inactive: 1.16
GGCCAACCUUGGUCUUAUGTT against Gpr146	inactive: -0.848
CCCAGUACAGCCUUGUGGUTT against 2610034E13Rik	inactive: 0.0537
GCUGUGCAGAUUAAAUUUGTT against Rsbn	inactive: 0.00681
CCUAAGGUCAAGAUAUAGCTT against 1200008O12Rik	inactive: 0.201
GGAAGUCACUCCUCUUGUUTT against Garnl1	inactive: -1.02
GGAAUCAAACUGGAUUGAUTT against Pi4k2b	inactive: 1.42
GGGUGCUGUGCACUAUUUCTT against Pcnxl3	inactive: 0.329
GGCACCAUCUAUUAUUUUCTT against Psmc3	inactive: -1.33

Fetched one by one from above (4):
Sequence	z-score
GGCCAACCUUGGUCUUAUGTT against Gpr146	inactive: -0.848
CCCUAAUAGGUCAAUAAAGTT against V1re13	inactive: 1.16
GCUGUGCAGAUUAAAUUUGTT against Rsbn	inactive: 0.00681
GGGUGCUGUGCACUAUUUCTT against Pcnxl3	inactive: 0.329
